# Experimental data published in the supplement of paper PMC8728848.
# This is one part of the list.
# B1: pTFF2 (Sus scrofa), P01359 (protein)
# chain: KPAACRCSRQDPKNRVNCGFPGITSDQCFTSGCCFDSQVPGVPWCFKPLPAQESEECVMEVSARKNCGYPGISPEDCAARNCCFSDTIPEVPWCFFPMSVEACHY
# Columns and labels:
# Assay in all cases: glycan array binding signal (z-score within array); higher = stronger binding
# Conditions in all cases: glycan notation: IUPAC condensed, linker removed
# [1] = molecular target: GlcNAc(b1-4)GlcNAc(b1-4)GlcNAc(b1-4)GlcNAc(b1-4)GlcNAc
# How it was run: (§1)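 From the Consortium for Functional Glycomics database, 3228 arrays were curated, keeping only those whose protein sequence was available. Binding is given as a within-array Z-score averaged across arrays sharing a protein sequence and across linkers. Negative Z-scores can be read as non-binding.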
# [2] = molecular target: GlcNAc(b1-4)GlcNAc(b1-4)GlcNAc(b1-4)GlcNAc(b1-4)GlcNAc(b1-4)GlcNAc
# How it was run: as §1
# [3] = molecular target: GlcNAc(b1-4)[GlcNAc(b1-6)]GalNAc
# How it was run: as §1
# [4] = molecular target: GlcNAc(b1-6)Gal(b1-4)GlcNAc
# How it was run: as §1
# GlcNAc(b1-6)GalNAc = molecular target: GlcNAc(b1-6)GalNAc
# How it was run: as §1
# [5] = molecular target: GlcNAc6S(b1-3)Gal(b1-4)GlcNAc
# How it was run: as §1
# Kdn(a2-3)Gal(b1-3)GalNAc = molecular target: Kdn(a2-3)Gal(b1-3)GalNAc
# How it was run: as §1
# Kdn(a2-3)Gal(b1-3)GlcNAc = molecular target: Kdn(a2-3)Gal(b1-3)GlcNAc
# How it was run: as §1
# Kdn(a2-3)Gal(b1-4)Glc = molecular target: Kdn(a2-3)Gal(b1-4)Glc
# How it was run: as §1
# Kdn(a2-3)Gal(b1-4)GlcNAc = molecular target: Kdn(a2-3)Gal(b1-4)GlcNAc
# How it was run: as §1
# [6] = molecular target: Kdn(a2-3)Gal(b1-4)[Fuc(a1-3)]GlcNAc
# How it was run: as §1
# Kdn(a2-6)Gal(b1-4)GlcNAc = molecular target: Kdn(a2-6)Gal(b1-4)GlcNAc
# How it was run: as §1
# [7] = molecular target: Man(a1-2)Man(a1-2)Man(a1-3)Man
# How it was run: as §1
# [8] = molecular target: Man(a1-2)Man(a1-2)Man(a1-6)[Man(a1-3)]Man
# How it was run: as §1
# Man(a1-2)Man(a1-3)Man = molecular target: Man(a1-2)Man(a1-3)Man
# How it was run: as §1
# [9] = molecular target: Man(a1-2)Man(a1-3)[Man(a1-2)Man(a1-6)]Man
# How it was run: as §1
# [10] = molecular target: Man(a1-2)Man(a1-3)[Man(a1-2)Man(a1-6)]Man(a1-6)[Man(a1-2)Man(a1-2)Man(a1-3)]Man
# How it was run: as §1
# [11] = molecular target: Man(a1-2)Man(a1-3)[Man(a1-2)Man(a1-6)]Man(a1-6)[Man(a1-2)Man(a1-2)Man(a1-3)]Man(b1-4)GlcNAc(b1-4)GlcNAc
# How it was run: as §1
# [12] = molecular target: Man(a1-2)Man(a1-3)[Man(a1-6)]Man(a1-6)[Man(a1-2)Man(a1-3)]Man(b1-4)GlcNAc(b1-4)GlcNAc
# How it was run: as §1
# [13] = molecular target: Man(a1-2)Man(a1-6)[Man(a1-3)]Man(a1-6)[Man(a1-2)Man(a1-2)Man(a1-3)]Man
# How it was run: as §1
# [14] = molecular target: Man(a1-2)Man(a1-6)[Man(a1-3)]Man(a1-6)[Man(a1-2)Man(a1-2)Man(a1-3)]Man(b1-4)GlcNAc(b1-4)GlcNAc
# How it was run: as §1
# Man(a1-3)[Man(a1-6)]Man = molecular target: Man(a1-3)[Man(a1-6)]Man
# How it was run: as §1
# [15] = molecular target: Man(a1-3)[Man(a1-6)]Man(a1-6)[Man(a1-2)Man(a1-3)]Man(b1-4)GlcNAc(b1-4)GlcNAc
# How it was run: as §1
# [16] = molecular target: Man(a1-3)[Man(a1-6)]Man(a1-6)[Man(a1-3)]Man
# How it was run: as §1
# [17] = molecular target: Man(a1-3)[Man(a1-6)]Man(a1-6)[Man(a1-3)]Man(b1-4)GlcNAc(b1-4)GlcNAc
# How it was run: as §1
# [18] = molecular target: Man(a1-3)[Man(a1-6)]Man(b1-4)GlcNAc(b1-4)GlcNAc
# How it was run: as §1
# [19] = molecular target: Man(a1-3)[Man(a1-6)]Man(b1-4)GlcNAc(b1-4)[Fuc(a1-6)]GlcNAc
# How it was run: as §1
# Man(a1-6)Man = molecular target: Man(a1-6)Man
# How it was run: as §1
# Man(b1-4)GlcNAc = molecular target: Man(b1-4)GlcNAc
# How it was run: as §1
# MurNAc(b1-4)GlcNAc = molecular target: MurNAc(b1-4)GlcNAc
# How it was run: as §1
# Neu5Ac(a2-3)Gal = molecular target: Neu5Ac(a2-3)Gal
# How it was run: as §1
# [20] = molecular target: Neu5Ac(a2-3)Gal(b1-3)GalNAc
# How it was run: as §1
# [21] = molecular target: Neu5Ac(a2-3)Gal(b1-3)GalNAc(b1-3)Gal(a1-4)Gal(b1-4)Glc
# How it was run: as §1
# [22] = molecular target: Neu5Ac(a2-3)Gal(b1-3)GalNAc(b1-4)Gal(b1-4)Glc
# How it was run: as §1
# [23] = molecular target: Neu5Ac(a2-3)Gal(b1-3)GalNAc(b1-4)[Neu5Ac(a2-3)]Gal(b1-4)Glc
# How it was run: as §1
# [24] = molecular target: Neu5Ac(a2-3)Gal(b1-3)GalNAc(b1-4)[Neu5Ac(a2-8)Neu5Ac(a2-3)]Gal(b1-4)Glc
# How it was run: as §1
# [25] = molecular target: Neu5Ac(a2-3)Gal(b1-3)GalNAc6S
# How it was run: as §1
# [26] = molecular target: Neu5Ac(a2-3)Gal(b1-3)GlcNAc
# How it was run: as §1
# [27] = molecular target: Neu5Ac(a2-3)Gal(b1-3)GlcNAc(b1-2)Man
# How it was run: as §1
# [28] = molecular target: Neu5Ac(a2-3)Gal(b1-3)GlcNAc(b1-2)Man(a1-3)[GlcNAc(b1-4)][Neu5Ac(a2-3)Gal(b1-3)GlcNAc(b1-2)Man(a1-6)]Man(b1-4)GlcNAc(b1-4)GlcNAc
# How it was run: as §1
# [29] = molecular target: Neu5Ac(a2-3)Gal(b1-3)GlcNAc(b1-2)Man(a1-3)[Neu5Ac(a2-3)Gal(b1-3)GlcNAc(b1-2)Man(a1-6)]Man(b1-4)GlcNAc(b1-4)GlcNAc
# How it was run: as §1
# [30] = molecular target: Neu5Ac(a2-3)Gal(b1-3)GlcNAc(b1-2)[Neu5Ac(a2-3)Gal(b1-3)GlcNAc(b1-4)]Man(a1-6)[Neu5Ac(a2-3)Gal(b1-3)GlcNAc(b1-2)Man(a1-3)]Man(b1-4)GlcNAc(b1-4)GlcNAc
# How it was run: as §1
# [31] = molecular target: Neu5Ac(a2-3)Gal(b1-3)GlcNAc(b1-3)Gal(b1-3)GlcNAc
# How it was run: as §1
# [32] = molecular target: Neu5Ac(a2-3)Gal(b1-3)GlcNAc(b1-3)Gal(b1-4)GlcNAc
# How it was run: as §1
# [33] = molecular target: Neu5Ac(a2-3)Gal(b1-3)GlcNAc(b1-3)GalNAc
# How it was run: as §1
binder,measurement,setting,value
B1,glycan array binding signal (z-score),[1],-0.168
same,glycan array binding signal (z-score),[2],-0.364
same,glycan array binding signal (z-score),[3],-1.57
same,glycan array binding signal (z-score),[4],-0.456
same,glycan array binding signal (z-score),GlcNAc(b1-6)GalNAc,-0.621
same,glycan array binding signal (z-score),[5],0.592
same,glycan array binding signal (z-score),Kdn(a2-3)Gal(b1-3)GalNAc,0.467
same,glycan array binding signal (z-score),Kdn(a2-3)Gal(b1-3)GlcNAc,-0.672
same,glycan array binding signal (z-score),Kdn(a2-3)Gal(b1-4)Glc,-0.746
same,glycan array binding signal (z-score),Kdn(a2-3)Gal(b1-4)GlcNAc,0.544
same,glycan array binding signal (z-score),[6],1.11
same,glycan array binding signal (z-score),Kdn(a2-6)Gal(b1-4)GlcNAc,0.54
same,glycan array binding signal (z-score),[7],1.44
same,glycan array binding signal (z-score),[8],1.33
same,glycan array binding signal (z-score),Man(a1-2)Man(a1-3)Man,-0.923
same,glycan array binding signal (z-score),[9],-1.11
same,glycan array binding signal (z-score),[10],-0.502
same,glycan array binding signal (z-score),[11],0.438
same,glycan array binding signal (z-score),[12],-0.442
same,glycan array binding signal (z-score),[13],0.712
same,glycan array binding signal (z-score),[14],-1.11
same,glycan array binding signal (z-score),Man(a1-3)[Man(a1-6)]Man,-1.26
same,glycan array binding signal (z-score),[15],0.578
same,glycan array binding signal (z-score),[16],0.025
same,glycan array binding signal (z-score),[17],-0.224
same,glycan array binding signal (z-score),[18],0.69
same,glycan array binding signal (z-score),[19],-0.079
same,glycan array binding signal (z-score),Man(a1-6)Man,1
same,glycan array binding signal (z-score),Man(b1-4)GlcNAc,-0.36
same,glycan array binding signal (z-score),MurNAc(b1-4)GlcNAc,-0.243
same,glycan array binding signal (z-score),Neu5Ac(a2-3)Gal,0.835
same,glycan array binding signal (z-score),[20],-0.363
same,glycan array binding signal (z-score),[21],0.055
same,glycan array binding signal (z-score),[22],0.567
same,glycan array binding signal (z-score),[23],0.668
same,glycan array binding signal (z-score),[24],-0.871
same,glycan array binding signal (z-score),[25],-1.6
same,glycan array binding signal (z-score),[26],-0.426
same,glycan array binding signal (z-score),[27],-1.49
same,glycan array binding signal (z-score),[28],-0.153
same,glycan array binding signal (z-score),[29],-1.01
same,glycan array binding signal (z-score),[30],-0.884
same,glycan array binding signal (z-score),[31],1.93
same,glycan array binding signal (z-score),[32],-0.844
same,glycan array binding signal (z-score),[33],-0.321
